Laboratory results from the supplement of paper PMC12578635.
Some of the results follow. Cut-off read from the data, not from the text of the source: active = 150% or more and inactive = the rest. Repeats are few or missing, and single values can be far off.

What follows are compounds tested on Staphylococcus aureus JE2-lux inside RAW 264.7 macrophages (assay: intracellular bacterial bioluminescence relative to DMSO vehicle; higher = higher intracellular bacterial metabolic activity). Conditions: 10 µM; treatment time 4 h; gentamicin 50 µg/ml.
For Cc1cc(Cl)ccc1OCC(=O)N/N=C1/C(=O)Nc2ccc(Br)cc21, the intracellular bacterial bioluminescence was inactive: 115%.
With Oc1c(C(c2ccco2)N2CCC3(CC2)OCCO3)sc2ncnn12 (configuration not stated) the intracellular bacterial bioluminescence was inactive: 93.6%.
In the case of CC1C(=O)N2CCCc3cc(NC(=O)COc4ccc5ccccc5c4)cc1c32 (configuration not stated), the intracellular bacterial bioluminescence is reported as inactive: 64.1%.
For CCOc1cc(/C=C2/SC(=S)N(NC(=O)c3ccccc3OC)C2=O)ccc1O, the intracellular bacterial bioluminescence was inactive: 67.8%.
For CC(C)(C)c1nc2ccccc2c2nn(CC(=O)N3CCNC(=O)C3(C)C)c(=O)n12, the intracellular bacterial bioluminescence was inactive: 93.2%.
With CC(=O)N1N=C(c2ccccc2)CC1c1ccc2nccnc2c1 (configuration not stated) the intracellular bacterial bioluminescence was inactive: 107%.
For O=C(CCCS(=O)(=O)c1ccc(F)cc1)Nc1ncnc2sccc12, the intracellular bacterial bioluminescence was inactive: 85.9%.
With COc1cc(/C=C2/SC(=S)N(Nc3ccc([N+](=O)[O-])cc3[N+](=O)[O-])C2=O)ccc1O the intracellular bacterial bioluminescence was inactive: 55.3%.
With O=C(Cc1ccc(-c2ccccc2)cc1)Nc1ccc2c(c1)CCC(=O)N2 the intracellular bacterial bioluminescence was inactive: 58.7%.
COC(=O)c1ccc(NC(=O)CSc2nnc(Cc3ccc(C)cc3)c(=O)n2N)cc1 was tested, and the intracellular bacterial bioluminescence was inactive: 38.6%.
With O=C1Nc2ccc(F)cc2/C1=C1/SC(=S)N(CCS(=O)(=O)O)C1=O the intracellular bacterial bioluminescence was inactive: 95.8%.
With Cc1c(NS(=O)(=O)c2ccc3c4c(cccc24)C(=O)N3)c(=O)n(-c2ccccc2)n1C the intracellular bacterial bioluminescence was inactive: 133%.
In the case of O=c1c2scc(-c3ccc(F)cc3)c2ncn1Cc1ccccn1, the intracellular bacterial bioluminescence is reported as inactive: 28.7%.
With Cc1cccn2cc(CCNS(=O)(=O)c3cccc([N+](=O)[O-])c3)nc12 the intracellular bacterial bioluminescence was inactive: 87.7%.
O=C(CCN1CCOCC1)N1N=C(c2ccc(Cl)cc2)CC1c1ccco1 (configuration not stated) was tested, and the intracellular bacterial bioluminescence was inactive: 93.4%.
O=C(COc1ccc(Br)cc1)N/N=C/c1ccccc1 was tested, and the intracellular bacterial bioluminescence was inactive: 123%.
Cc1cccc(-n2ccnc2SCC(=O)Nc2ccc3c(c2)OCCO3)c1C was tested, and the intracellular bacterial bioluminescence was inactive: 80.7%.
O=C(CN1C(=O)CSC1=O)c1ccc(NC(=O)c2ccccc2)cc1 was tested, and the intracellular bacterial bioluminescence was inactive: 95.1%.
In the case of CCSc1nsc(NC(=O)Nc2cccc(C(C)=O)c2)n1, the intracellular bacterial bioluminescence is reported as inactive: 2.47%.
With O=C(CC1Sc2ccc(C(F)(F)F)cc2NC1=O)NC1CCCCC1 (configuration not stated) the intracellular bacterial bioluminescence was inactive: 107%.
O=C(CSc1nc2ccccc2c(=O)[nH]1)Nc1ccc2c(c1)OCCO2 was tested, and the intracellular bacterial bioluminescence was inactive: 106%.
CC(C)c1ccc2nc3sc(C(=O)N4CCOCC4)c(N)c3cc2c1 was tested, and the intracellular bacterial bioluminescence was inactive: 99.2%.
For COc1ccc(C(NC(=O)c2cnc(SC)nc2)c2ccncc2)cc1 (configuration not stated), the intracellular bacterial bioluminescence was inactive: 111%.
With CN(C(=O)Cc1ccsc1)c1nc2c(s1)CCc1c-2cnn1C the intracellular bacterial bioluminescence was inactive: 117%.
With Cc1ccc(S(=O)(=O)NC(C)C(=O)Nc2n[nH]c(Cc3ccccc3)n2)cc1 (configuration not stated) the intracellular bacterial bioluminescence was inactive: 125%.
CCN(CC)CCNC(=O)c1cnc2c(c(C)nn2-c2ccccc2)c1NCc1ccc(OC)cc1 was tested, and the intracellular bacterial bioluminescence was inactive: 98.1%.
Cc1ccc(S(=O)(=O)c2c(C(=O)N3CCCCC3)cnc3ccc(Cl)cc23)c(C)c1 was tested, and the intracellular bacterial bioluminescence was inactive: 94.3%.
In the case of Cc1cc(C)cc(N2CC(C)Cn3c2nc2c3c(=O)n(CC(=O)O)c(=O)n2C)c1 (configuration not stated), the intracellular bacterial bioluminescence is reported as inactive: 91%.
With O=C(O)C(=Cc1nc(-c2ccccc2)n2ccccc12)C(=O)O the intracellular bacterial bioluminescence was inactive: 123%.
With O=C(O)c1cccnc1SCc1cc2c(cc1Cl)OCO2 the intracellular bacterial bioluminescence was inactive: 114%.
In the case of CC1C(=O)N2CCCc3cc(NC(=O)C(=O)NCc4cccs4)cc1c32 (configuration not stated), the intracellular bacterial bioluminescence is reported as inactive: 20.7%.
In the case of Nc1c(C(=O)NCc2ccc3c(c2)OCO3)sc2nc(-c3cccs3)c3c(c12)CCCC3, the intracellular bacterial bioluminescence is reported as inactive: 92.7%.
With Cc1ccc2c(C(O)CN3CCC4(CC3)CC(O)c3ccccc3O4)c(C)[nH]c2c1 (configuration not stated) the intracellular bacterial bioluminescence was inactive: 101%.
CN(c1cncc(C(=O)NCc2ccco2)c1)S(=O)(=O)c1ccccc1 was tested, and the intracellular bacterial bioluminescence was inactive: 102%.
In the case of NC(=O)c1ccsc1NC(=O)c1ccccc1I, the intracellular bacterial bioluminescence is reported as inactive: 101%.
With COc1ccc(N2C(=O)C3N=NN(CC(=O)Nc4ccc(C)cc4C)C3C2=O)cc1Cl (configuration not stated) the intracellular bacterial bioluminescence was inactive: 87.2%.
For COCCCNC(=O)c1cncc(-c2ccc(C)cc2)c1, the intracellular bacterial bioluminescence was inactive: 98.1%.
With CC(=O)c1ccc(NC(=O)Nc2c[nH]c3ccccc23)cc1 the intracellular bacterial bioluminescence was inactive: 92.1%.
With CCOc1ccc(-c2noc(CSc3nc4cc5c(cc4c(=O)n3C3CCCC3)OCO5)n2)cc1 the intracellular bacterial bioluminescence was inactive: 98.8%.
CC(C)(C)c1nc2ccccc2c2nn(CC(=O)NCC3CC3)c(=O)n12 was tested, and the intracellular bacterial bioluminescence was inactive: 90.1%.
Cc1c(C)n(-c2cc(F)cc(F)c2)c2ncnc(Cl)c12 was tested, and the intracellular bacterial bioluminescence was inactive: 101%.
With COc1cccc(N(CC(=O)NCc2ccc(F)cc2)C(=O)CN2C(=O)COc3ccccc32)c1 the intracellular bacterial bioluminescence was inactive: 89.3%.
For CCOC(=O)c1cc([N+](=O)[O-])sc1NC(=O)c1ccc(S(=O)(=O)N(C)C)cc1, the intracellular bacterial bioluminescence was inactive: 118%.
Clc1ccc2nc(N3CCN(c4nc5ccccc5s4)CC3)sc2c1 was tested, and the intracellular bacterial bioluminescence was inactive: 107%.
CCCCOC(=O)c1cnn2c(C(F)(F)F)cc(-c3ccc(F)cc3)nc12 was tested, and the intracellular bacterial bioluminescence was inactive: 117%.
CC1CCCN(CCCNC(=O)Cn2cccc2-c2nc(-c3ccc(Cl)cc3)cs2)C1 (configuration not stated) was tested, and the intracellular bacterial bioluminescence was inactive: 99.7%.
COc1ccc(-c2nn(CCCC(=O)NCCc3ccc(Cl)cc3)c(=O)c3noc(C)c23)cc1 was tested, and the intracellular bacterial bioluminescence was inactive: 40.2%.
For CC(CCc1ccccc1)NC(=O)C1CCN(c2ccc3nnc(-c4ccccc4F)n3n2)CC1 (configuration not stated), the intracellular bacterial bioluminescence was inactive: 104%.
O=C(NNc1nc2c(Cl)cccc2s1)c1c(F)cccc1F was tested, and the intracellular bacterial bioluminescence was inactive: 66.3%.
CCOC(=O)c1ccc(NC(=O)CSc2nc(=O)n3cc(C)ccc3n2)cc1 was tested, and the intracellular bacterial bioluminescence was inactive: 85.7%.
COc1cc2nc(Nc3cccc(Cl)c3)sc2cc1OC was tested, and the intracellular bacterial bioluminescence was inactive: 122%.
For O=C(CSc1nc2ncccc2o1)NCC1CCCO1 (configuration not stated), the intracellular bacterial bioluminescence was inactive: 111%.
For O=C(Cc1cccc2ccccc12)Nc1nnc(-c2ccc3c(c2)OCCO3)o1, the intracellular bacterial bioluminescence was inactive: 81.7%.
With O=C(Nc1ccccc1Oc1ccccc1)c1ccc2ncsc2c1 the intracellular bacterial bioluminescence was inactive: 75.3%.
With CCc1nnsc1C(=O)Nc1sc2c(c1C(=O)NCc1ccccc1)CCCC2 the intracellular bacterial bioluminescence was inactive: 78.8%.
With O=C(CSc1ccc2nnc(-c3ccncc3)n2n1)OCc1ccccc1 the intracellular bacterial bioluminescence was inactive: 101%.
With COc1ccccc1C(=O)N1CCN(c2oc(/C=C/c3ccc(C)cc3)nc2C#N)CC1 the intracellular bacterial bioluminescence was inactive: 104%.
O=C(c1cc(C2CC2)on1)N1CCCC1c1cccs1 (configuration not stated) was tested, and the intracellular bacterial bioluminescence was inactive: 108%.
For CC1CN(C)CCC1CCc1ccc(NC(=O)Cn2ncc3ccccc3c2=O)cc1 (configuration not stated), the intracellular bacterial bioluminescence was inactive: 17.8%.
O=C(NC1CCCCNC1=O)C1CCN(Cc2noc(-c3ccc(F)cc3)n2)CC1 (configuration not stated) was tested, and the intracellular bacterial bioluminescence was inactive: 118%.
In the case of COc1ccccc1OCC(=O)NCCc1sc(-c2ccc(F)cc2)nc1C, the intracellular bacterial bioluminescence is reported as inactive: 87.9%.
For CCS(=O)(=O)c1ccccc1C(=O)/N=c1/sc2cc([N+](=O)[O-])ccc2n1C, the intracellular bacterial bioluminescence was inactive: 101%.
CCOC(=O)C(=O)n1cnc2ccc(C(=O)Nc3cc(OCC)c(NC(=O)c4ccccc4F)cc3OCC)cc21 was tested, and the intracellular bacterial bioluminescence was inactive: 81%.
With CCOC(=O)C1=C(C)NC(O)=NC1c1ccc([N+](=O)[O-])cc1 (configuration not stated) the intracellular bacterial bioluminescence was inactive: 28%.
With O=C(O)CC1S/C(=N\N=C/c2ccccc2)N(c2ccc(O)cc2)C1=O (configuration not stated) the intracellular bacterial bioluminescence was active: 160%.
CC(C)Cn1c(N2CCCC2)nc2c1c(=O)[nH]c(=O)n2C was tested, and the intracellular bacterial bioluminescence was inactive: 110%.
For CCc1cc(Sc2ccc(N)cc2)n2ncnc2n1, the intracellular bacterial bioluminescence was inactive: 122%.
In the case of COc1ccc(Cl)cc1NC(=O)CSc1ccc2nnc(-c3ccncc3)n2n1, the intracellular bacterial bioluminescence is reported as inactive: 87.7%.
For O=C1/C(=C/c2nc3ccccc3[nH]2)SC(=S)N1Nc1ccccc1, the intracellular bacterial bioluminescence was inactive: 36.2%.
Cc1nnc(SCC(=O)NCc2ccccc2Cl)[nH]c1=O was tested, and the intracellular bacterial bioluminescence was inactive: 97.2%.
With Cc1ccc(-c2csc(NC(=O)c3ccc(N4C(=O)CCC4=O)cc3)n2)o1 the intracellular bacterial bioluminescence was inactive: 80.4%.
In the case of CC(=O)Nc1ccc(NC(=O)CSc2ccc(-c3ccc(Cl)cc3)nn2)cc1, the intracellular bacterial bioluminescence is reported as inactive: 96.8%.
With CC1(C)Cc2nc3sc4c(=O)n(CC(=O)NCC5CCCO5)cnc4c3cc2CO1 (configuration not stated) the intracellular bacterial bioluminescence was inactive: 98.2%.
For CCCn1nc(C)cc1NC(=O)c1ncoc1-c1ccc(F)cc1, the intracellular bacterial bioluminescence was inactive: 129%.
With N#Cc1cc2cc3c(cc2nc1SCC(=O)N1CCCc2ccccc21)OCO3 the intracellular bacterial bioluminescence was inactive: 59.6%.
For Cc1ccc(-c2csc(-c3cccn3CC(=O)NC3CCCCCCC3)n2)cc1, the intracellular bacterial bioluminescence was inactive: 126%.
In the case of O=C(O)c1ccc(Oc2nccnc2N2CCCCC2)cc1, the intracellular bacterial bioluminescence is reported as inactive: 104%.
For CCC(=O)NNc1nc2c(Cl)cccc2s1, the intracellular bacterial bioluminescence was inactive: 92%.
For CSc1cccc2sc(NCc3ccccc3)nc12, the intracellular bacterial bioluminescence was inactive: 71.8%.
In the case of Cc1c(Cl)cccc1NC(=O)Cn1c(=O)n(Cc2ccccc2)c(=O)c2sc3ccccc3c21, the intracellular bacterial bioluminescence is reported as inactive: 101%.
In the case of O=c1oc2ccccc2n1CCCOc1ccccc1, the intracellular bacterial bioluminescence is reported as inactive: 74.8%.
For CC12CC(NC(=O)N1c1ccc3c(c1)OCCO3)c1ccccc1O2 (configuration not stated), the intracellular bacterial bioluminescence was inactive: 87.5%.
With Cc1cc2cc(C#N)c(SCC(=O)N3CCc4ccccc43)nc2cc1C the intracellular bacterial bioluminescence was inactive: 90.5%.
In the case of CC(=O)c1cccc(NC(=O)N2CCCN(c3nc4cc(C)c(C)cc4cc3C#N)CC2)c1, the intracellular bacterial bioluminescence is reported as inactive: 80.8%.
With CC1=C(C(=O)Nc2ccc(C)cc2)C(c2ccc(N(C)C)cc2)NC(=O)N1 (configuration not stated) the intracellular bacterial bioluminescence was inactive: 115%.
For Cc1cc(NC(=O)CSc2nc(=O)n(CCO)c3c2CCCC3)no1, the intracellular bacterial bioluminescence was inactive: 122%.
O=C(Nc1cccc2ccccc12)c1cnc2sccn2c1=O was tested, and the intracellular bacterial bioluminescence was inactive: 120%.
For CC(C)COc1ccc(S(=O)(=O)Nc2ccc3c(c2)C(=O)Nc2ccccc2O3)cc1, the intracellular bacterial bioluminescence was inactive: 84.2%.
With Cc1ccn2c(=O)nc(SCC(=O)N3CCC(C)CC3)nc2c1 the intracellular bacterial bioluminescence was inactive: 120%.
With Cc1ccc(CNc2nccn(-c3ccc(C)cc3C)c2=O)cc1 the intracellular bacterial bioluminescence was inactive: 97.1%.
CC1(C)c2sc(=O)[nH]c2SC2C(=O)N(CC(=O)O)C(=O)C21 (configuration not stated) was tested, and the intracellular bacterial bioluminescence was inactive: 124%.
In the case of Cc1ccnc(NC(=O)Nc2c[nH]c3ccccc23)c1, the intracellular bacterial bioluminescence is reported as inactive: 99.9%.
